Consider 1 compound from paper PMC6563844, “Identification and in vivo Efficacy Assessment of Approved Orally Bioavailable Human Host Protein-Targeting Drugs With Broad Anti-influenza A Activity” (Frontiers in Immunology, 2019).

The data set has as its system H1N1 A/Puerto Rico/8/34 (PR8).

Take `NCCCC(O)(P(=O)(O)O)P(=O)(O)O` [Alendronate]: the “toxicity in the screen” value is on record as “pronounced toxicity”.
